This experiment deals with v-maf musculoaponeurotic fibrosarcoma oncogene homolog F (MAFF) (mouse (endogenous in AML12 cells / hepatocytes)) (UniProt O54791). The experiment in a line: co-IP; cellular lysates of hepatocytes after H/R incubated with anti-MAFF, anti-Bach1 or rabbit IgG (4.0 ug) at 4 C overnight, protein A/G magnetic beads 2 h, western blotting. In general terms: In western blotting, separated proteins are transferred to a membrane and probed.

By UniProt entry, the sequences of proteins in these tests, tags left out.
UniProt O54791: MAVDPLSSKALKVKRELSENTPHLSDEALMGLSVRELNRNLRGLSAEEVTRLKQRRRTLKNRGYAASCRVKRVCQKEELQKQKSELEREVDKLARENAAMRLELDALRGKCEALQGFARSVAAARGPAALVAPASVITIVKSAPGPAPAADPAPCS
UniProt P97302: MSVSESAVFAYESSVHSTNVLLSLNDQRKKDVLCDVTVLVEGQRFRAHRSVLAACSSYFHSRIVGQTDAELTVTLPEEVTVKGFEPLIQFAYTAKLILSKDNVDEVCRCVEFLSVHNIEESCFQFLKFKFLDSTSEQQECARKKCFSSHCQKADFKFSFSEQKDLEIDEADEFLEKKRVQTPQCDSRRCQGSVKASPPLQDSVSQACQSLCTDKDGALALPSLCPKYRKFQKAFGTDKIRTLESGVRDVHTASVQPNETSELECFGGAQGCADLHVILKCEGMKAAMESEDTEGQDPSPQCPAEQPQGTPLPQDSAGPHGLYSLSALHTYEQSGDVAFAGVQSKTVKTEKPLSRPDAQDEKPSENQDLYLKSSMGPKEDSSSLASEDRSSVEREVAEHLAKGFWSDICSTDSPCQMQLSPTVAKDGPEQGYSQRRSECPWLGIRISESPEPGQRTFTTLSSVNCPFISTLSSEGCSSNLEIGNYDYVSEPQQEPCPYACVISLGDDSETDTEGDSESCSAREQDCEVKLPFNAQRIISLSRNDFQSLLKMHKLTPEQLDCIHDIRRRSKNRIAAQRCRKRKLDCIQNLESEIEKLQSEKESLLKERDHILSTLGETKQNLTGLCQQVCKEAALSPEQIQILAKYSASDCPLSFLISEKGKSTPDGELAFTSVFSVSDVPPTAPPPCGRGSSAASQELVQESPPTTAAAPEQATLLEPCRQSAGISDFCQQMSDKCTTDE

One substance from article PMC11963299 can be followed below.

No constants are given. Whether binding was seen depends on the method and setting. In cells and extracts the contact can be indirect. Some binding calls cover weakened binding; strength is not graded here.

For the substance “BTB and CNC homology 1 (BACH1) (from UniProt P97302 1-739)”, the binding entry was “binds”.
